At least one peptide structure holds a part that was inferred or is arguable (an end, a ring closure or a residue). Square brackets hold non-standard residues; d marks the D form. Side chains are listed from the residue outwards. Peptide text beside a SMILES is read from it. * marks the point of attachment. pGlu = O=C1CC[C@@H](C(=O)O)N1; NHPh = c1ccc(N*)cc1
System: female turkeys
Experiment: brooding time of female turkeys
Assay type: in vivo, turkey

With `CC(C)C[C@H](NC(=O)C[C@H](NC(=O)[C@H](Cc1ccc(O)cc1)NC(=O)[C@H](CO)NC(=O)[C@H](Cc1c[nH]c2ccccc12)NC(=O)[C@H](Cc1c[nH]cn1)NC(=O)[C@@H]1CCC(=O)N1)C(=O)Nc1ccccc1)C(=O)N[C@@H](CCCNC(=N)N)C(=O)N1CCC[C@H]1C(=O)NCC(N)=O` [(β-Asp-alpha-anilide)^6 -LH-RH] ([pGlu]HWSYD([Leu-Arg-Pro-Gly-NH2])-NHPh) the brooding time was “essentially reduced”.
